Results from one PubChem assay

Data taken from PubChem BioAssay AID1159506, deposited by NCATS (2015).

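Genome-wide siRNA knockdown in TC32 Ewing sarcoma cells, comparing luciferase light from an NR0B1-promoter reporter with a CMV-promoter reporter 48 hours after transfection.
Each siRNA was applied at 20 nM.
A z-score of the log NR0B1-over-CMV signal, less the median of siRNAs with the same seed; more negative means a stronger specific loss of the NR0B1 reporter.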

This is part of the screen; most of the strongest results are not listed here.
Sequences are the guide (antisense) strand, without overhang.

With UUGUCAUAGACAGCGGUCC against LRFN2 the assay gave seed-corrected z-score 0.3512.
With UCUGUAACGUGAGUCCUGC against MRPL4 the assay gave seed-corrected z-score 0.8969.
With UUCCAACAAAGAGAGCUCC against ERAL1 the assay gave seed-corrected z-score 0.3859.
With AAGUUAUCCACUCCCUUGG against SMIM22 the assay gave seed-corrected z-score -1.193.
With UCUCAUACAUCUUUUCUUC against SCIMP the assay gave seed-corrected z-score 0.1078.
With UCCGGUUUUCCAGACAUGC against PKD1L1 the assay gave seed-corrected z-score -0.8444.
With AAACUGACAGGAUCCAUAG against UHRF1BP1 the assay gave seed-corrected z-score 0.581.
With UCCCAUACAAGGCUUAGUG against GPC5 the assay gave seed-corrected z-score -0.4459.
With UGUACAACAGUCGUGGGAG against GHRL the assay gave seed-corrected z-score -1.735.
With AAACGAAAGGCUUUUAUUG against CLDN3 the assay gave seed-corrected z-score -0.5291.
With UCGUUUAUUCAUUAGGUGC against ELOVL6 the assay gave seed-corrected z-score -1.395.
With AACCAAACAAGGUAAUGUC against ARMC8 the assay gave seed-corrected z-score -0.1856.
With UGCAGGGUCAGUUCUUUGU against ZNF296 the assay gave seed-corrected z-score 0.08048.
With UCGUCAUUGACCCUUCUCC against SNX6 the assay gave seed-corrected z-score 0.8091.
With UAAUCACCUAGGUGCAGGC against HHLA3 the assay gave seed-corrected z-score 0.2143.
With UCUGGUCUGACCUAGGAGC against NPPA the assay gave seed-corrected z-score -1.38.
With AAAGUAAUUAUUAGGGCUG against PCDHGA11 the assay gave seed-corrected z-score -0.05234.
With UAUGCUAAGAAAACCAUUC against GNG4 the assay gave seed-corrected z-score -0.5596.
With UCGCGGACGAUUUGAAAGC against TPSD1 the assay gave seed-corrected z-score 0.4309.
With UUACAAUUUUGAGCACUCC against ARMCX6 the assay gave seed-corrected z-score 0.7392.
With UUCAUCUGAAUGAAAACCC against KMT2B the assay gave seed-corrected z-score -0.717.
With UCAAAUCUAGUUGCGAUCU against TBX5-AS1 the assay gave seed-corrected z-score 0.8581.
With UAGGCAGUGAGUUAGAGGA against WISP2 the assay gave seed-corrected z-score -0.8681.
With UGUUCUAUCACUGCCUCUG against BHMT2 the assay gave seed-corrected z-score -0.336.
With UGCUGUACCACUGUAGAUG against ARID2 the assay gave seed-corrected z-score -0.1223.
With UUCUUUCUUCGAUUUGUCG against PNMAL2 the assay gave seed-corrected z-score 1.155.
With AGAAUGACAAGUUCAGCUC against RANGAP1 the assay gave seed-corrected z-score 0.1082.
With UUUGAUGUUAGUAAGUUGC against DPY19L1 the assay gave seed-corrected z-score 0.548.
With UAAGUGCACUCGCAAAUGG against LGALS16 the assay gave seed-corrected z-score 0.4394.
With CUGAGUAGCACAGGUAGCC against KRTAP23-1 the assay gave seed-corrected z-score 0.3471.
With UAAUCCAUCGAUCCAUACC against RAB40AL the assay gave seed-corrected z-score -0.01094.
With UAGAUGGUUACCGUGGUUC against GPR18 the assay gave seed-corrected z-score 0.0474.
With UGUAGUAUCCAGGAUAUAG against TMIGD1 the assay gave seed-corrected z-score -1.176.
With AAGGCAACAACAUUCUCCG against TAS2R60 the assay gave seed-corrected z-score -0.1789.
With UUUGCGGAUGCGAAGUUCC against RPL11 the assay gave seed-corrected z-score -1.449.
With UCUGGAUCAACGGGUAUCC against ANO3 the assay gave seed-corrected z-score -1.592.
With ACUGCUAAAGGAUUCUGGC against CRTC1 the assay gave seed-corrected z-score -0.4478.
With UAUGGUUAAACGACUUCCC against ZNF8 the assay gave seed-corrected z-score 0.3115.
With UUCCGUAACACCAGGUCCC against OTUD7A the assay gave seed-corrected z-score 0.1385.
With UCGUCCUUAAGAGAAGUGC against UNC13B the assay gave seed-corrected z-score -0.2065.
With AAUCGUUAAAUGUGGACUG against RAP1B the assay gave seed-corrected z-score -0.604.
With UGUCCUUUGAGAGGCCUCC against ENTPD1-AS1 the assay gave seed-corrected z-score -0.008193.
With ACAGUUGCAAGCUCGACAC against LAMC2 the assay gave seed-corrected z-score -1.507.
With UAAAUACCCUUGUCCGUCU against TAX1BP3 the assay gave seed-corrected z-score 0.5766.
With AAAGGUAUUUGUUUUCUUU against FAM21A the assay gave seed-corrected z-score 0.1947.

Some entries from above, unchanged:

siRNA,target gene,seed-corrected z-score
CUGAGUAGCACAGGUAGCC,KRTAP23-1,0.3471
UCGCGGACGAUUUGAAAGC,TPSD1,0.4309
UGUACAACAGUCGUGGGAG,GHRL,-1.735
UCAAAUCUAGUUGCGAUCU,TBX5-AS1,0.8581
UUGUCAUAGACAGCGGUCC,LRFN2,0.3512